Measured values from the supplement of paper PMC10338343.
± gives the standard deviation. Only a part is listed here, and it is no random draw. Many entries were measured with a wide error.

Tested on: MIWI (PIWIL1) piRISC loaded with L1MC piRNA (30 nt)
Assay: pre-steady-state target cleavage rate (min^-1); MIWI and MILI are mouse PIWI proteins and EfPiwi is from a freshwater sponge; tags in brackets are library labels; higher = faster piRNA-guided slicing of the target
Conditions: guide: L1MC piRNA 5'p-UAACUAAAUACUAUGCAAGCUGUAGGUCCU
Outline: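 Cleave-'n-Seq: 1 nM active affinity-purified piRISC with one synthetic guide and 0.1 nM transcribed, DNA-blocked target RNA library were mixed, with or without 500 nM GTSF1 partner protein, in HEPES–potassium acetate buffer at 33 °C for 0–8 or 0–960 min. Uncleaved targets were sequenced and normalised to depth and to weakly complementary targets, three trials were pooled, and k3 was capped at 0.0001 min^-1. The pre-steady-state cleavage rate was fitted […].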

[1] = auxiliary factor: none (no GTSF1)
[2] = auxiliary factor: 500 nM mouse GTSF1

| Sequence | pre-steady-state target cleavage rate [1] | pre-steady-state target cleavage rate [2] |
| --- | --- | --- |
| UCCUGGAUGUCGAACGAUAGCUAUUUAGUUA | 0.000228 ± 0.019 | – |
| AGGACCUACAGCUUGCAUAAGUAUUUAGUUA | 0.00101 ± 0.0089 | – |
| UCCACCUACACGAUGCAUAGUAUUUAGAAA | 0.00106 ± 0.0074 | – |
| UCCUGGAUGUCGAACCAUAGUAUUUAGUCUA | – | 0.000155 ± 0.036 |
| UCCACCUACAGCUUGCAUACUAUUUUCAAA | 0.000932 ± 0.0049 | – |
| UCCUGGAUGUCGAACCAUAGUAAUUAGAUA | 0.000177 ± 0.028 | – |
| UCCUGGAUGUCGAACGAUAGUAUUAAGUAA | 0.000136 ± 0.031 | – |
| UCCACCUACAGCUUGGUAAGUAUUUAGUAA | 0.000627 ± 0.0078 | – |
| UCCUGGAUGUCGAAGGAUACUAUUUAGUUA | 0.000197 ± 0.042 | – |
| UCCACCUACAGCAACCAUAGUAUUUAGUUA | 0.00074 ± 0.0058 | – |
| UCCACCUACAGCUUGCAUAGUAUAAACAAA | 0.00134 ± 0.0048 | – |
| UCCACCUACAGCUUGGUAAGUAUUUAGUUA | 0.000418 ± 0.0057 | – |
| UCGACCUACAGCAACCAUAGUAUUUACAAA | 0.000192 ± 0.019 | – |
| UCGACCUACAGCUUGCAUUCAAUUUACAAA | 0.000684 ± 0.0091 | – |
| UGGACCUACAGCUUGCAUAGAUAAAUCAAA [g11:g29:cont:t1A] | 0.000221 ± 0.012 | – |
| UCGACCUACAGCUAGCAUAGUAUUUAGAAA | 0.00208 ± 0.0028 | – |
| UGGACCUACAGCAUGCAUAGUAUUUUCAAA | 0.00173 ± 0.0041 | – |
| UCCUGGAUGUCGAACGUAAGUAUUAGUUA | 0.000175 ± 0.036 | – |
| UCGACCAUGAGCUUGCAUAGUAUUUUCAAA | 0.00165 ± 0.0029 | – |
| UCCUGGAUGUCGAACCAUAGUAUUUACAAA [g5:g15:cont:t1A] | 0.00018 ± 0.015 | – |
| UCCACCUACAGCUUGCAUUCUAUUUAGUAA | 0.00247 ± 0.0026 | – |
| UCGACCUACAGCUACGAUAGUAUUUAGAAA | 0.000254 ± 0.01 | – |
| UCGACCUACAGCUUGCAUCAGUAUUUAGUUA | 0.00102 ± 0.0067 | – |
| UCCACGUACAGCUUGCAUAGUAUUUUCAAA | 0.00217 ± 0.0031 | – |

| Sequence | pre-steady-state target cleavage rate [1] | pre-steady-state target cleavage rate [2] |
| --- | --- | --- |
| UCCUGGUACAGCUUGCAUAGUAUUAUCUAA | 0.00114 ± 0.004 | – |
| UCCUGGUACAGCUUGCAUAGUAUAAUGUAA | 0.00241 ± 0.0042 | – |
| AGGACCUACAGCAAGCAUAGUAUUUAGAAA | 0.00253 ± 0.0047 | – |
| UGGACCUACAGCUUGCAUAGCUAUUUAGUUA | 0.00183 ± 0.0029 | – |
| AGGACCUACAGCUUCGUUAGUAUUUAGUUA | 0.00188 ± 0.0032 | – |
| AGGACCUACAGCUUGGUAAGUAUUUAGUAA | 0.00109 ± 0.0084 | – |
| UCGACCUACAGCUUGCAUAGUUAUUACAAA | – | 0.115 ± 0.035 |
| UCGACCUACAGCUUGCAUAGAAUUUUCAAA | 0.00141 ± 0.0054 | – |
| UCGACCUACAGCUUGCAAUGUAUUUAGAAA | 0.000447 ± 0.0045 | – |
| UCCACCUACAGCUUGCAUCAGUAUUUAGUUA | 0.000907 ± 0.008 | – |
| UCGACCUACAGCUAGCAUAGUAUUUUCAAA | 0.00108 ± 0.0073 | – |
| UCGACCUACAGCUUGCAAUCAUAAAUCAAA [g14:g28:cont:t1A] | 0.000262 ± 0.013 | – |
| UCCACCUACAGCUUGCAUACAAUUUUCAAA | 0.000878 ± 0.0081 | – |
| UCCUGGAUGUCGAACGUUAGUUAAUAGUUA | – | 0.000277 ± 0.026 |
| UGGACCUACACGUUGCAUAGUAUUUACAAA | 0.00146 ± 0.0044 | – |
| UCCACCUACAGCUUGCAUAGUAUUUUCUAA | 0.00306 ± 0.0034 | – |
| UCGACCUACAGCUUGCAUAUAUUUAGUUA | 0.00277 ± 0.003 | – |
| UCCACCUACAGCUUGCAUAGUAUAUAGAAA | 0.00129 ± 0.0049 | – |
| UCCACCUUGUGCUUGCAUAGUAUUUUCAAA | 0.00149 ± 0.0022 | – |
| UGGACCUACAGGAAGCAUAGUAUUUACAAA | 0.000887 ± 0.0073 | – |
| UCGACCUACAGCUUGCAUACAUUUUAGUUA | 0.00102 ± 0.0059 | – |
| UCCACCUACAGCUUGCAUAGAUAAAUCAAA [g11:g27:cont:t1A] | 0.000802 ± 0.01 | – |
| UCCUGGAUGUCGAACGUAACUAUAUAGUUA | 0.00026 ± 0.023 | – |
| UCCUGGAUGUCGAACGAUAGUUUUUAGAUA | 0.00026 ± 0.018 | – |

Exported tab-delimited: part of the list above.
Sequence	pre-steady-state target cleavage rate [1]	pre-steady-state target cleavage rate [2]
UCCUGGAUGUCGAAGGAUACUAUUUAGUUA	0.000197 ± 0.042	–
UCCACCUACAGCAACCAUAGUAUUUAGUUA	0.00074 ± 0.0058	–
UCCACCUACAGCUUGCAUAGUAUAAACAAA	0.00134 ± 0.0048	–

Next results follow:

| Sequence | pre-steady-state target cleavage rate [1] | pre-steady-state target cleavage rate [2] |
| --- | --- | --- |
| UGGACCUACAGCUUGCAUAGUAUUAUCAAA | 0.00173 ± 0.0043 | – |
| UCGACCUACAGCUUGCAUAGAUUUUACAAA | 0.000857 ± 0.0072 | – |
| UCCACCUACAGCUUGCUAUGUAUUUUCAAA | 0.000184 ± 0.015 | – |
| UGGACCUACAGCAACCAUAGUAUUUAGUUA | 0.00148 ± 0.0026 | – |
| UGGACCUACAGCAACCAUAGUAUUUAGAAA | 0.000272 ± 0.0093 | – |
| UGGACCUUGUGCUUGCAUAGUAUUUUCAAA | 0.0018 ± 0.0033 | – |
| UCCUGCUACAGCUUGACAUAGUAUUUAGUUA | 0.00226 ± 0.0025 | – |
| UCGACCUACAGCUUGGUAAGUAUUUACAAA | 0.000274 ± 0.0081 | – |
| UCCUGGAUGUCGAACGAUAGUAUUAUGUUA | 0.000178 ± 0.028 | – |
| UCCACCUACAGCUUGCAUAGUUAAAUCAAA [g10:g27:cont:t1A] | 0.000214 ± 0.013 | – |
| UCCUGGAUGUCGAAGCAUAGUAUUUUCAAA [g6:g16:cont:t1A] | 0.000281 ± 0.017 | – |
| UCGACCUACAGCUACCAUAGUAUUUAGAAA | 0.000254 ± 0.015 | – |
| UCCACCUACAGCUUGCAUAGUAUUAUGAAA | 0.0013 ± 0.0055 | – |
| UCCACCUACAGCUUGCAUAGUUAAUAGUAA | 0.00117 ± 0.0051 | – |
| AGGACCUACAGCUACCAUAGUAUUUACAAA | 0.000424 ± 0.013 | – |
| UCCACCUACAGCUUGCUAUGUAUUUACAAA | 0.000178 ± 0.014 | – |
| UCCACCUACAGCUUGGUAAGUAUUUAGAAA | 0.000282 ± 0.011 | – |
| UCCACCUACAGCUAGCAUAGUAUUUUCAAA | 0.000804 ± 0.0078 | – |
| AGGACCAUGAGCUUGCAUAGUAUUUUCAAA | 0.00199 ± 0.0036 | – |
| UGGACCUACAGGAUGCAUAGUAUUUUCAAA | 0.000897 ± 0.0036 | – |
| UCCACCUACAGCUUGCUUAGUAUUUUCAAA | 0.000778 ± 0.0065 | – |
| UCCUGGAUGUCGAACGUAUCUAUUAUGUUA | 0.000301 ± 0.019 | – |
| UCCUCCUACAGGAUGCAUAGUAUUUUCAAA | 0.0005 ± 0.011 | – |
| UCCACCUACAGCUUGCAUAGUAUAAAGUAA | 0.00259 ± 0.0033 | – |

Full records as entered above. Values in the order: pre-steady-state target cleavage rate [1] | pre-steady-state target cleavage rate [2]
UCCACCUACAGCUUGGUAAGUAUUUAGAAA as listed: 0.000282 ± 0.011 | –
UCCUGGAUGUCGAACGAUAGUAUUAUGUUA as listed: 0.000178 ± 0.028 | –
